Source: the supplement of paper PMC12823440, “Inhibitors supercharge kinase turnover through native proteolytic circuits” (Nature, 2025)
Where a name gives a salt, the structure may show the parent alone. The list shows a part of the results. The calls rarely recur for the same compound in another form.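 In K562 cells expressing nanoluciferase-fused kinases, luminescence was recorded at 4 h intervals between 2 and 18 h, normalized as percent of control with DMSO at 100% and a positive control at 0%. A significant (2 sigma) signal drop marks a time point as decreased. The authors' rule for a hit is not shown and takes in more than the number of time points.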

Protein sequences, listed by entry. Tags and fused reporters are not part of them.
UniProt P42356, whole entry, looked up: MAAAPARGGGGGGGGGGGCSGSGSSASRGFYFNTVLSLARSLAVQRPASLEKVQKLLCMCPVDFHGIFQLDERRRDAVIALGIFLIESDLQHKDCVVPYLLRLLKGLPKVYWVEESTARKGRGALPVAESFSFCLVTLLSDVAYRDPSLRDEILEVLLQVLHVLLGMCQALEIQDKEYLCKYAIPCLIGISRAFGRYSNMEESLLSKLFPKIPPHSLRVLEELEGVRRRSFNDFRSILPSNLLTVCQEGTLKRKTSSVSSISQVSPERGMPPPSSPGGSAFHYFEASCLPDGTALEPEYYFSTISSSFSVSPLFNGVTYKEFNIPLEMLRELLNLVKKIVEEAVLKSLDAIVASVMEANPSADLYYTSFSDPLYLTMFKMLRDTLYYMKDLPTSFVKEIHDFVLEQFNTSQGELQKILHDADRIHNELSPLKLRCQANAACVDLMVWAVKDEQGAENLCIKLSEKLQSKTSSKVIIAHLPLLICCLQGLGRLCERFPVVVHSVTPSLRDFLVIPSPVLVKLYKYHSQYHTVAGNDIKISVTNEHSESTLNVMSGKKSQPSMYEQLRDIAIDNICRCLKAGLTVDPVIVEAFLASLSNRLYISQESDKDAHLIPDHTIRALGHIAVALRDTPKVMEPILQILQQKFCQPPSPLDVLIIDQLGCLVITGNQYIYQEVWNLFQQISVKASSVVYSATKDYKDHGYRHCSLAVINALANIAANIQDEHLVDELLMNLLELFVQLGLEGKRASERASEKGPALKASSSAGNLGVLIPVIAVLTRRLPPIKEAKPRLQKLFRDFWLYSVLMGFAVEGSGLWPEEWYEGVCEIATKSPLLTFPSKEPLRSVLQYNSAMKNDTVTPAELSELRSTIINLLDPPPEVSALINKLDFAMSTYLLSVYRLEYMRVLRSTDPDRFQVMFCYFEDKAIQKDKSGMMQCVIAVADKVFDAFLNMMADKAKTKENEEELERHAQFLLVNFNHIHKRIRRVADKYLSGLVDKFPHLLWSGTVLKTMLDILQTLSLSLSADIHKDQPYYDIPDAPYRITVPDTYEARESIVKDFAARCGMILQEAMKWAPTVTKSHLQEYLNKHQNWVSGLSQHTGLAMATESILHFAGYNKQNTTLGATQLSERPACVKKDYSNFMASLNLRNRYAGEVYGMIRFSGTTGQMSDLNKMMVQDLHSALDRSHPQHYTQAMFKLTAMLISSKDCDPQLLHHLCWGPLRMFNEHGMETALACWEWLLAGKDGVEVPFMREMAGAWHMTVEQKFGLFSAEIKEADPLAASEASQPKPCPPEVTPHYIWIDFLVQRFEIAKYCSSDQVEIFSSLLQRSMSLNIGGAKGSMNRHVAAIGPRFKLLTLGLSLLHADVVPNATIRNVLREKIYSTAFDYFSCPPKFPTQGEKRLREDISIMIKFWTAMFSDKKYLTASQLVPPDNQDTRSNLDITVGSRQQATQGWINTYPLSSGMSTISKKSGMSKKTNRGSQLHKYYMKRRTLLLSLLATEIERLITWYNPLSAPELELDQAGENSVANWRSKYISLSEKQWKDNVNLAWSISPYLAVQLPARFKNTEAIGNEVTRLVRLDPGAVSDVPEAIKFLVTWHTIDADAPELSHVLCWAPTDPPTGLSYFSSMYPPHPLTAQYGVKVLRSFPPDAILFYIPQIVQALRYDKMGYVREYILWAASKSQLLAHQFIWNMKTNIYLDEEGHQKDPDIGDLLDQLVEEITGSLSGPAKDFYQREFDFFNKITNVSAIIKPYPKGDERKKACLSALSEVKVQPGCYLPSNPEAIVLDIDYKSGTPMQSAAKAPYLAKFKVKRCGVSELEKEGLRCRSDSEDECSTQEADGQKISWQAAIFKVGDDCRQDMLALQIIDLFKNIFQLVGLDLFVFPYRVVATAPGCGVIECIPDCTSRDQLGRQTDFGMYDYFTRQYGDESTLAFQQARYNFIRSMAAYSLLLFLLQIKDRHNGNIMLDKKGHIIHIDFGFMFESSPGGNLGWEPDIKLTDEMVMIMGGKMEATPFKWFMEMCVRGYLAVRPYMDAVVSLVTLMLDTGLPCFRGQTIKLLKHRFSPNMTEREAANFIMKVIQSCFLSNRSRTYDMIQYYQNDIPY

target: PIK4CA (UniProt P42356); test: kinase-Nluc reporter destabilization hit call (1 = scored as downregulated) (binary); higher = compound decreases kinase abundance; details: 2.5 µM; K562; 2-18 h

kinase-Nluc reporter destabilization hit call, inactive:
CN1CCCN(C(=O)c2cccc(-c3ccc(/C=C4/C(=O)Nc5ccc(Cl)cc54)o3)c2)CC1 [CX-6258 (hydrochloride)] 0
Clc1ccc(C2(c3ccc(-c4cn[nH]c4)cc3)CCNCC2)cc1 [AT7867 (dihydrochloride)] 0
CC(C)Oc1ccc(-c2nn([C@@H](C)c3oc4ccc(F)cc4c(=O)c3-c3cccc(F)c3)c3ncnc(N)c23)cc1F [Umbralisib] 0
C=CC(=O)Nc1cc(Nc2nccc(-c3cn(C)c4ccccc34)n2)c(OC)cc1N(C)CCN(C)C [Osimertinib] 0
COc1cc2c(Oc3ccc4[nH]c(C)cc4c3F)ncnc2cc1OCCCN1CCCC1 [Cediranib (maleate)] 0
CC(C)Oc1ccc(-c2nn([C@@H](C)c3oc4ccc(F)cc4c(=O)c3-c3cccc(F)c3)c3ncnc(N)c23)cc1F [Umbralisib (hydrochloride)] 0
COc1ccc(S(=O)(=O)N(CCO)c2ccccc2CN(C)C/C=C/c2ccc(Cl)cc2)cc1 [KN-93 (hydrochloride)] 0
C=CC(=O)N1CCN(c2ncnc3c(F)c(-c4c(O)cccc4F)c(Cl)cc23)CC1 0
COc1ccc(S(=O)(=O)Nc2ccccc2CN(C)C/C=C/c2ccc(Cl)cc2)cc1 [KN-92 (hydrochloride)] 0
CCN(CC)Cc1ccc(OC)c(-c2cc3c(-c4ccc(C(=O)O)c(C(C)C)c4)ccnc3[nH]2)c1 0
CN(C)C/C=C/C(=O)Nc1cc2c(Nc3ccc(F)c(Cl)c3)ncnc2cc1O[C@H]1CCOC1 [Afatinib (dimaleate)] 0
Oc1cccc(-c2nc(N3CCOCC3)c3oc4ncccc4c3n2)c1 [PI-103 (Hydrochloride)] 0
c1cc(-c2cnn3cc(-c4ccc(OCCN5CCCCC5)cc4)cnc23)ccn1 [Dorsomorphin] 0
COc1ccc(S(=O)(=O)N(CCO)c2ccccc2CN(C)C/C=C/c2ccc(Cl)cc2)cc1 [KN-93 (phosphate)] 0
Nc1ncnc2c1c(-c1ccc(Oc3ccccc3)cc1)nn2[C@@H]1CCCNC1 [IBT6A (hydrochloride)] 0

same assay, conditions: 10 µM; K562; 2-18 h

kinase-Nluc reporter destabilization hit call, inactive:
COc1cc2nccc(Oc3ccc(NC(=O)C4(C(=O)Nc5ccc(F)cc5)CC4)cc3)c2cc1OC [Cabozantinib (S-malate)] 0
Cn1cc(-c2cnc3ccc4ccc(CS(=O)(=O)NCc5ccccn5)cc4c(=O)c3c2)cn1 [MK-8033 (hydrochloride)] 0
CNC(=O)c1ccc(Nc2ncc(C(F)(F)F)c(NCc3nccnc3N(C)S(C)(=O)=O)n2)cc1 [Defactinib] 0
N#CCNC(=O)c1ccc(-c2ccnc(Nc3ccc(N4CCOCC4)cc3)n2)cc1 [Momelotinib] 0
CC(=O)c1c(C)c2cnc(Nc3ccc(N4CCNCC4)cn3)nc2n(C2CCCC2)c1=O [Palbociclib (isethionate)] 0
Nc1cncc(-c2cn3ccnc3c(Nc3ccc(N4CCN(C5COC5)CC4)cc3)n2)n1 [Lanraplenib (succinate)] 0
C#Cc1cccc(Nc2ncnc3cc4c(cc23)OCCOCCOCCO4)c1 [Icotinib] 0
O=C(O)c1ccc2c(c1)nc(Nc1cccc(Cl)c1)c1ccncc12 [Silmitasertib (sodium salt)] 0
CC(C)Nc1cc(-c2c[nH]c(C(=O)N[C@H](CO)c3cccc(Cl)c3)c2)c(Cl)cn1 [Ulixertinib (hydrochloride)] 0
C=CC(=O)N1CCN(c2ncnc3c(F)c(-c4c(O)cccc4F)c(Cl)cc23)CC1 0
CN(C)C(=O)c1cc2cnc(Nc3ccc(N4CCNCC4)cn3)nc2n1C1CCCC1 [Ribociclib] 0
COc1cc2c(-c3cnn4cc(N5CCC(N6CCN(C)CC6)CC5)cnc34)ccnc2cc1F [ALK2-IN-4 (succinate)] 0
CCN(CC)Cc1ccc(OC)c(-c2cc3c(-c4ccc(C(=O)O)c(C(C)C)c4)ccnc3[nH]2)c1 0
O=C(c1nn(-c2ccc(CN3CCOCC3)cc2)c2c1CS(=O)(=O)c1c(F)cccc1-2)N1CCOCC1 0
CC(C)(C)n1nc(-c2cccc3ccccc23)c2c(N)ncnc21 [1-Naphthyl PP1 (hydrochloride)] 0
CCN(CC)CC(=O)Nc1c(C)cccc1C [Lidocaine (hydrochloride)] 0
Cn1ncc(Cl)c1-c1cc(C(=O)N[C@H](CN)Cc2cccc(F)c2)sc1Cl [Afuresertib (hydrochloride)] 0
COc1cc2c(cc1OC)-c1c(C)c3ccc(OC)c(OC)c3c[n+]1CC2 [Dehydrocorydaline] 0
C[C@H](CCC(=O)NCCS(=O)(=O)O)[C@H]1CC[C@H]2[C@@H]3[C@@H](O)C[C@@H]4C[C@H](O)CC[C@]4(C)[C@H]3CC[C@]12C [Tauroursodeoxycholate (dihydrate)] 0
OCCn1cc(-c2cnc3nnn(Cc4ccc5ncccc5c4)c3n2)cn1 0
C[S+]([O-])c1ccc(-c2nc(-c3ccc(F)cc3)c(-c3ccncc3)[nH]2)cc1 (configuration not stated) 0
CC(C)(C)n1nc(-c2cccc3ccccc23)c2c(N)ncnc21 [1-Naphthyl PP1] 0
